{"sequences": {"note": "The chains behind the UniProt entries cited, without tags or fusion partners. Residues count along the entry.", "UniProt P13128, residues 39-526": "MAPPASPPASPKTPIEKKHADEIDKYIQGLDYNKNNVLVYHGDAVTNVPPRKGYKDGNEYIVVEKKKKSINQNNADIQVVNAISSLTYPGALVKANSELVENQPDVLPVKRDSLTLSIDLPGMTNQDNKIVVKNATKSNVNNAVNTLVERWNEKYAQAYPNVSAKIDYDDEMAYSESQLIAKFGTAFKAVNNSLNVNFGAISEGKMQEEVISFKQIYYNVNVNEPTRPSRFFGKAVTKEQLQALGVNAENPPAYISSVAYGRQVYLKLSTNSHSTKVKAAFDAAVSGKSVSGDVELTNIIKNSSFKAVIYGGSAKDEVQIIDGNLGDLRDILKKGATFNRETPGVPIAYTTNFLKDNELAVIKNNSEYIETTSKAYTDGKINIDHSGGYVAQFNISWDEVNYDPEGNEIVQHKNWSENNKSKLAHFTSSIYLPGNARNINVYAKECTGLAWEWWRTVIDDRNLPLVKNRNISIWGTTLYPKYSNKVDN"}, "source": "paper PMC9962927", "biological_target": "listeriolysin O (Listeria monocytogenes) (UniProt P13128)", "test": "in vitro oligomerisation, SDS-PAGE and Western blot; purified LLO pre-incubated with or without the indicated concentrations of CT extract at 37 °C for 20 min; oligomerisation induced in vitro as in ref. 46; high molecular weight complexes detected by Western blot; both purified", "note": "No constants are given. Whether binding was seen depends on the method and setting. Some binding calls cover weakened binding; strength is not graded here.", "data": [{"substance": "listeriolysin O (from UniProt P13128 39-526)", "values": [{"measurement": "binding", "result": "binds"}]}]}
